{"source": "PubChem BioAssay AID1159584 – Peter MacCallum Cancer Centre – 2016", "screen": "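Knock-downs that harm CDH1-null cells more than parental MCF10A cells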 (primary screen)", "cells": "human MCF10A breast epithelial cells, parental and CDH1-null", "reagents": "siRNA against human genes", "read-out": "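ATP luminescence (CellTiter-Glo) viability per line relative to mean mock wells over all plates, and the ratio of CDH1-null to parental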", "scale": "CDH1-null / parental viability ratio: higher = CDH1-null cells survive relatively better than parental; CDH1-null viability vs mock: higher = more viable CDH1-null cells", "units": "CDH1-null viability vs mock in fraction of mock", "note": "Shown is a random part of about 18,000 deposited reagents. Not all columns of the deposit are shown. Not given: the amount of reagent, the time to read-out."}
{"target": "MMP28", "CDH1-null / parental viability ratio": 1.62, "CDH1-null viability vs mock": 0.94}
{"target": "DIAPH2", "CDH1-null / parental viability ratio": 1.07, "CDH1-null viability vs mock": 0.9}
{"target": "PDE11A", "CDH1-null / parental viability ratio": 0.82, "CDH1-null viability vs mock": 0.77}
{"target": "FMO5", "CDH1-null / parental viability ratio": 0.96, "CDH1-null viability vs mock": 0.92}
{"target": "PISD", "CDH1-null / parental viability ratio": 0.86, "CDH1-null viability vs mock": 0.6}
{"target": "UPK2", "CDH1-null / parental viability ratio": 0.69, "CDH1-null viability vs mock": 0.29}
{"target": "RAPGEFL1", "CDH1-null / parental viability ratio": 1.08, "CDH1-null viability vs mock": 0.78}
{"target": "PRAC1", "CDH1-null / parental viability ratio": 0.88, "CDH1-null viability vs mock": 0.85}
{"target": "NOSIP", "CDH1-null / parental viability ratio": 1.12, "CDH1-null viability vs mock": 0.65}
{"target": "MITD1", "CDH1-null / parental viability ratio": 0.93, "CDH1-null viability vs mock": 0.86}
{"target": "CPQ", "CDH1-null / parental viability ratio": 1.03, "CDH1-null viability vs mock": 0.6}
{"target": "ADA2", "CDH1-null / parental viability ratio": 0.94, "CDH1-null viability vs mock": 0.85}
{"target": "ATG4C", "CDH1-null / parental viability ratio": 0.96, "CDH1-null viability vs mock": 0.66}
{"target": "TMSB4X", "CDH1-null / parental viability ratio": 0.92, "CDH1-null viability vs mock": 0.74}
{"target": "ZDHHC7", "CDH1-null / parental viability ratio": 1.14, "CDH1-null viability vs mock": 0.89}
{"target": "ZNF610", "CDH1-null / parental viability ratio": 1.09, "CDH1-null viability vs mock": 0.74}
{"target": "CHAC1", "CDH1-null / parental viability ratio": 0.95, "CDH1-null viability vs mock": 0.6}
{"target": "CALML5", "CDH1-null / parental viability ratio": 1.27, "CDH1-null viability vs mock": 1}
{"target": "GCSAM", "CDH1-null / parental viability ratio": 1.13, "CDH1-null viability vs mock": 1.23}
{"target": "BTN2A1", "CDH1-null / parental viability ratio": 1.2, "CDH1-null viability vs mock": 0.78}
{"target": "APOO", "CDH1-null / parental viability ratio": 1.08, "CDH1-null viability vs mock": 0.84}
{"target": "SNAI2", "CDH1-null / parental viability ratio": 0.88, "CDH1-null viability vs mock": 0.64}
{"target": "POFUT4", "CDH1-null / parental viability ratio": 1.01, "CDH1-null viability vs mock": 0.7}
{"target": "C1QTNF9B", "CDH1-null / parental viability ratio": 1.37, "CDH1-null viability vs mock": 0.96}
{"target": "CHEK1", "CDH1-null / parental viability ratio": 0.98, "CDH1-null viability vs mock": 0.54}
{"target": "RPS29", "CDH1-null / parental viability ratio": 1.46, "CDH1-null viability vs mock": 0.38}
{"target": "LSM5", "CDH1-null / parental viability ratio": 1.4, "CDH1-null viability vs mock": 0.74}
{"target": "CLXN", "CDH1-null / parental viability ratio": 1.32, "CDH1-null viability vs mock": 0.75}
{"target": "GABRB3", "CDH1-null / parental viability ratio": 1.28, "CDH1-null viability vs mock": 1.05}
{"target": "RPS15", "CDH1-null / parental viability ratio": 1.25, "CDH1-null viability vs mock": 0.4}
{"target": "DRD5", "CDH1-null / parental viability ratio": 0.61, "CDH1-null viability vs mock": 0.46}
{"target": "RHO", "CDH1-null / parental viability ratio": 0.69, "CDH1-null viability vs mock": 0.66}
{"target": "CYP4F22", "CDH1-null / parental viability ratio": 0.88, "CDH1-null viability vs mock": 1.05}
{"target": "OR2M2", "CDH1-null / parental viability ratio": 1.59, "CDH1-null viability vs mock": 0.92}
{"target": "ANK2", "CDH1-null / parental viability ratio": 1.22, "CDH1-null viability vs mock": 0.98}
{"target": "KRTAP5-5", "CDH1-null / parental viability ratio": 1.35, "CDH1-null viability vs mock": 0.74}
{"target": "SULT1A3", "CDH1-null / parental viability ratio": 0.98, "CDH1-null viability vs mock": 1.02}
{"target": "ZNF781", "CDH1-null / parental viability ratio": 0.98, "CDH1-null viability vs mock": 0.92}
{"target": "E2F4", "CDH1-null / parental viability ratio": 0.91, "CDH1-null viability vs mock": 0.97}
{"target": "DMAC2", "CDH1-null / parental viability ratio": 1.03, "CDH1-null viability vs mock": 1.05}
{"target": "FCER1G", "CDH1-null / parental viability ratio": 0.8, "CDH1-null viability vs mock": 0.7}
{"target": "ARPC5", "CDH1-null / parental viability ratio": 1.29, "CDH1-null viability vs mock": 1.06}
{"target": "SAMD9L", "CDH1-null / parental viability ratio": 1.01, "CDH1-null viability vs mock": 0.97}
{"target": "CAVIN3", "CDH1-null / parental viability ratio": 1.1, "CDH1-null viability vs mock": 1.01}
{"target": "DNM2", "CDH1-null / parental viability ratio": 1.17, "CDH1-null viability vs mock": 1.08}

Ordered by “CDH1-null viability vs mock” (high to low): 4 of the entries above.
{"target": "CYP4F22", "CDH1-null / parental viability ratio": 0.88, "CDH1-null viability vs mock": 1.05}
{"target": "OR2M2", "CDH1-null / parental viability ratio": 1.59, "CDH1-null viability vs mock": 0.92}
{"target": "RHO", "CDH1-null / parental viability ratio": 0.69, "CDH1-null viability vs mock": 0.66}
{"target": "DRD5", "CDH1-null / parental viability ratio": 0.61, "CDH1-null viability vs mock": 0.46}
